PubChem BioAssay AID1224830, NIAID – 2016
The whole screen tested about 18,000 reagents; below is a random part of them. Of all reagents, about 2,900 (16%) got an active call. 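Calls are made per well; low scores hint the gene aids the LPS response, high scores that it dampens it.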 Repeated entries: four replicate wells of each siRNA pool.

- Test: 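Regulators of TLR4 signalling towards TNF-alpha in macrophage-like cells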 (primary screen)
- Cell system: human THP-1 monocytic leukaemia cells, TNF dual-luciferase reporter clone, PMA-differentiated to macrophage-like cells
- Knock-down reagent: siRNA pool against human genes, 50 nM
- Time to read-out: LPS for 4 h, given about 3 days after siRNA transfection
- Conditions: bacterial LPS (TLR4 ligand), 10 ng/ml
- Measured: 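Ratio of firefly to renilla light, scaled to the plate median and expressed as a robust z-score per replicate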
- Reading the numbers: TNF reporter robust z-score: higher = stronger TNF reporter response to LPS
- Rule for the call: 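Each well counts as active if its z-score is over 2.8 or under -1.5; controls are left without a call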

no.	target gene	TNF reporter robust z-score	outcome
1	SPDYE1	0.18	inactive
2	SPDYE1	0.42	inactive
3	SPDYE1	1.08	inactive
4	SPDYE1	1.25	inactive
5	HMOX1	-0.35	inactive
6	HMOX1	0.58	inactive
7	HMOX1	0.03	inactive
8	HMOX1	1.69	inactive
9	FSIP1	-0.23	inactive
10	FSIP1	-0.42	inactive
11	FSIP1	-0.07	inactive
12	FSIP1	-1.46	inactive
13	DCAF12L2	-0.74	inactive
14	DCAF12L2	-0.21	inactive
15	DCAF12L2	-0.1	inactive
16	DCAF12L2	-1.31	inactive
17	SYTL1	0.34	inactive
18	SYTL1	1.14	inactive
19	SYTL1	0.09	inactive
20	SYTL1	0.93	inactive
21	ZNF774	2.81	active
22	ZNF774	0.56	inactive
23	ZNF774	0.27	inactive
24	ZNF774	1.66	inactive
25	RAP2A	-1.06	inactive
26	RAP2A	-0.14	inactive
27	RAP2A	-0.97	inactive
28	RAP2A	-0.4	inactive
29	SENP2	-0.78	inactive
30	SENP2	-0.43	inactive
31	SENP2	-1.15	inactive
32	SENP2	1.03	inactive
33	ZNF770	-1.26	inactive
34	ZNF770	-1.52	active
35	ZNF770	-1.43	inactive
36	CDADC1	-1.77	active
37	CDADC1	-1.47	inactive
38	CDADC1	-0.41	inactive
39	CDADC1	-0.05	inactive
40	GPR88	-0.31	inactive
41	GPR88	1.3	inactive
42	GPR88	-0.37	inactive
43	GPR88	-0.41	inactive
44	NSDHL	0.41	inactive
45	NSDHL	0.91	inactive
46	NSDHL	0.79	inactive
47	ADAMTSL4	-0.73	inactive
48	ADAMTSL4	0.37	inactive
49	ADAMTSL4	-0.15	inactive
50	ADAMTSL4	0.4	inactive

Reformatted: 10 of the entries above.
{"target gene": "CDADC1", "TNF reporter robust z-score": -0.41, "outcome": "inactive"}
{"target gene": "CDADC1", "TNF reporter robust z-score": -0.05, "outcome": "inactive"}
{"target gene": "GPR88", "TNF reporter robust z-score": -0.31, "outcome": "inactive"}
{"target gene": "GPR88", "TNF reporter robust z-score": 1.3, "outcome": "inactive"}
{"target gene": "GPR88", "TNF reporter robust z-score": -0.37, "outcome": "inactive"}
{"target gene": "GPR88", "TNF reporter robust z-score": -0.41, "outcome": "inactive"}
{"target gene": "NSDHL", "TNF reporter robust z-score": 0.41, "outcome": "inactive"}
{"target gene": "NSDHL", "TNF reporter robust z-score": 0.91, "outcome": "inactive"}
{"target gene": "NSDHL", "TNF reporter robust z-score": 0.79, "outcome": "inactive"}
{"target gene": "ADAMTSL4", "TNF reporter robust z-score": -0.73, "outcome": "inactive"}

The list goes on.
no.	target gene	TNF reporter robust z-score	outcome
51	KRT78	-0.98	inactive
52	KRT78	-0.64	inactive
53	KRT78	-1.31	inactive
54	KRT78	-0.73	inactive
55	ZNF775	-0.88	inactive
56	ZNF775	0.91	inactive
57	ZNF775	-0.05	inactive
58	ZNF775	-0.09	inactive
59	CDV3	2.49	inactive
60	CDV3	1.64	inactive
61	CDV3	1.16	inactive
62	CDV3	2.02	inactive
63	ROPN1L	-0.28	inactive
64	ROPN1L	-0.34	inactive
65	ROPN1L	-0.51	inactive
66	ROPN1L	-0.37	inactive
67	GRHPR	1.64	inactive
68	GRHPR	2.03	inactive
69	GRHPR	2.95	active
70	GRHPR	1.88	inactive
71	KCNK2	2.2	inactive
72	KCNK2	2.83	active
73	KCNK2	-0.64	inactive
74	KCNK2	3.06	active
75	SLC5A12	1.04	inactive
76	SLC5A12	1.33	inactive
77	SLC5A12	-0.62	inactive
78	SLC5A12	-0.06	inactive
79	ARL13B	0.9	inactive
80	ARL13B	2.33	inactive
81	ARL13B	-0.24	inactive
82	ARL13B	0.83	inactive
83	UCKL1	-1.58	active
84	UCKL1	0.64	inactive
85	UCKL1	-0.27	inactive
86	UCKL1	0.48	inactive
87	ZSWIM3	0.02	inactive
88	ZSWIM3	-0.21	inactive
89	ZSWIM3	0.19	inactive
90	ZSWIM3	-0.03	inactive
91	DNTTIP1	-0.89	inactive
92	DNTTIP1	-0.14	inactive
93	DNTTIP1	-0.88	inactive
94	DNTTIP1	-0.33	inactive
95	EDARADD	1.61	inactive
96	EDARADD	1.6	inactive
97	EDARADD	2.09	inactive
98	EDARADD	0.76	inactive
99	UCHL5	0.76	inactive
100	UCHL5	0.28	inactive
101	UCHL5	0.43	inactive
102	UCHL5	1.49	inactive
103	PTGES	0.6	inactive
104	PTGES	7.93	active
105	PTGES	0.58	inactive
106	PTGES	2.21	inactive
107	MAP3K10	-0.47	inactive
108	MAP3K10	-0.38	inactive
109	MAP3K10	-0.37	inactive
110	MAP3K10	1.56	inactive
